Experimental data from PMC7272049.
Results are given in words; binding and its absence hold for the method and conditions named. Sequences can lack the tags named with a protein.

Amino acid sequences for entries named in this document (tags omitted). A change or cut given only in a name is not applied to a line headed by its entry.
UniProt Q9EP73: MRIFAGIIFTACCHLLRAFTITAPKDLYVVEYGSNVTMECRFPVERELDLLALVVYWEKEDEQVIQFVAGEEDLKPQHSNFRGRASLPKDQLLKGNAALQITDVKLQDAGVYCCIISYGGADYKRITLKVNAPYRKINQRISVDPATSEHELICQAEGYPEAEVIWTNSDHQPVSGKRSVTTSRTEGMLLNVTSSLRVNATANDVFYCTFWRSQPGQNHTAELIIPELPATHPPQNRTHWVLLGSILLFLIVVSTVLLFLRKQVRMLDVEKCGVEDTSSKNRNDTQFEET

Target: T1, murine CD200 mCherry fusion (mouse) (UniProt O54901)
T1 sequence: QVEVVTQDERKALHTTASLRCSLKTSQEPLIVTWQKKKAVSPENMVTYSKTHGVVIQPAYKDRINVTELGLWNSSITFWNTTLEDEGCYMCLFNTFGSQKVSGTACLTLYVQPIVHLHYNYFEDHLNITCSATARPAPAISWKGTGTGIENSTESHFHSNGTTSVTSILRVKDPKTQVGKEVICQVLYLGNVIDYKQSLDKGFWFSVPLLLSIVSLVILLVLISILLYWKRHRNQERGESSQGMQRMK
Test: cell microarray; live cells on slides expressing mCherry fusions in alternating rows; Fc-fusion (~100 nM) pre-incubated with labelled secondary antibody (~200 nM); RT 30 min, 1x PBS 0.2% BSA; only the binder purified

binding: no binding (tested: ~100nM)
Substance: mPD-L1 hIgG1 (from UniProt Q9EP73 19-239) (Fc fusion)
